Reference: PubChem BioAssay AID743458 (Peter MacCallum Cancer Centre, 2014)
The whole screen tested about 1,800 reagents; below is a part drawn at random. Of all reagents, 732 (41%) got an active call. 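Calls are per siRNA reagent; a gene was deemed confirmed only if most of its four siRNAs scored.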 Reagents against one gene are numbered here.

Screen: 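Retest earlier hits with independent siRNAs per gene for restoring vorinostat sensitivity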 (follow-up of hits)
System: human HCT116-VR colon cancer cells made resistant to vorinostat
Reagents: single siRNA or pool against human genes, 25 nM per single siRNA
Timing: about 72 h after transfection, including 24 h of drug
Challenge: vorinostat, 2.5 µM final, for 24 h
Detection: 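Live-cell fluorescent viability and luminescent caspase 3/7 activity after vorinostat treatment, background subtracted, mean of duplicate plates, as fold change over mock-transfected wells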
Direction: viability relative to mock: higher = more living cells than mock; caspase activity relative to mock: higher = more apoptosis than mock
Active means: 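An siRNA counts as active if classed as reduced viability or as caspase activation, otherwise inactive; a hit class needed wells that remained healthy in the absence of drug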

target gene | reagent no. | viability relative to mock | caspase activity relative to mock | viability hit class | caspase hit class | activity call
USP11 | 1 | 0.68 | 2.55 | no change | no change | inactive
USP11 | 2 | 0.98 | 1.89 | no change | no change | inactive
USP11 | 3 | 0.92 | 0.85 | no change | no change | inactive
USP11 | 4 | 0.83 | 1.18 | no change | no change | inactive
EIF2S1 | 1 | 0.89 | 1.02 | no change | no change | inactive
EIF2S1 | 2 | 0.5 | 2.5 | no change | no change | inactive
EIF2S1 | 3 | 0.37 | 1.54 | reduced viability | no change | active
EIF2S1 | 4 | 0.38 | 0.97 | reduced viability | no change | active
SLC10A3 | 1 | 0.86 | 1.2 | no change | no change | inactive
SLC10A3 | 2 | 0.39 | 7.72 | reduced viability | caspase activation | active
SLC10A3 | 3 | 0.84 | 1.25 | no change | no change | inactive
SLC10A3 | 4 | 0.69 | 1 | no change | no change | inactive
DDX19B | 1 | 0.4 | 3.84 | reduced viability | caspase activation | active
DDX19B | 2 | 0.34 | 3.3 | reduced viability | caspase activation | active
DDX19B | 3 | 0.56 | 5.08 | reduced viability | caspase activation | active
DDX19B | 4 | 0.28 | 4.03 | reduced viability | caspase activation | active
SCUBE1 | 1 | 0.83 | 1.06 | no change | no change | inactive
SCUBE1 | 2 | 0.46 | 3.46 | reduced viability | caspase activation | active
SCUBE1 | 3 | 0.52 | 1.77 | reduced viability | no change | active
SCUBE1 | 4 | 0.9 | 3.55 | no change | caspase activation | active
MICALL2 | 1 | 0.6 | 2.56 | no change | no change | inactive
MICALL2 | 2 | 0.94 | 2.66 | no change | caspase activation | active
MICALL2 | 3 | 0.89 | 4.12 | no change | caspase activation | active
MICALL2 | 4 | 1.02 | 1 | no change | no change | inactive
EIF2B2 | 1 | 0.66 | 1.15 | no change | no change | inactive
EIF2B2 | 2 | 0.58 | 1.61 | no change | no change | inactive
EIF2B2 | 3 | 0.29 | 1.48 | reduced viability | no change | active
EIF2B2 | 4 | 0.26 | 2.66 | reduced viability | caspase activation | active
AQR | 1 | 0.36 | 3.69 | reduced viability | caspase activation | active
AQR | 2 | 0.39 | 4.23 | reduced viability | caspase activation | active
AQR | 3 | 0.41 | 3.3 | reduced viability | caspase activation | active
AQR | 4 | 0.42 | 3.99 | reduced viability | caspase activation | active
SERPINB13 | 1 | 1.04 | 1.31 | no change | no change | inactive
SERPINB13 | 2 | 0.92 | 1.19 | no change | no change | inactive
SERPINB13 | 3 | 0.71 | 1.58 | no change | no change | inactive
SERPINB13 | 4 | 0.24 | 3.62 | reduced viability | caspase activation | active
KRTAP27-1 | 1 | 0.9 | 1.62 | no change | no change | inactive
KRTAP27-1 | 2 | 0.59 | 2.73 | no change | caspase activation | active
KRTAP27-1 | 3 | 0.47 | 2.36 | no change | no change | inactive
KRTAP27-1 | 4 | 0.68 | 2.85 | no change | caspase activation | active
DNAI4 | 1 | 0.5 | 3.08 | reduced viability | caspase activation | active
DNAI4 | 2 | 0.84 | 1.09 | no change | no change | inactive
DNAI4 | 3 | 0.72 | 1.32 | no change | no change | inactive
DNAI4 | 4 | 0.8 | 0.82 | no change | no change | inactive
NPC1L1 | 1 | 1.02 | 1.4 | no change | no change | inactive
NPC1L1 | 2 | 0.56 | 2.91 | reduced viability | caspase activation | active
NPC1L1 | 3 | 0.8 | 1.34 | no change | no change | inactive
NPC1L1 | 4 | 0.44 | 4.05 | reduced viability | caspase activation | active
SPINT2 | 1 | 0.9 | 3.29 | no change | caspase activation | active
SPINT2 | 2 | 0.98 | 1.43 | no change | no change | inactive
SPINT2 | 3 | 0.59 | 1.34 | no change | no change | inactive
SPINT2 | 4 | 0.43 | 3.21 | reduced viability | caspase activation | active
OTOS | 1 | 0.81 | 1.12 | no change | no change | inactive
OTOS | 2 | 0.7 | 3.46 | no change | caspase activation | active
OTOS | 3 | 0.9 | 1.6 | no change | no change | inactive
OTOS | 4 | 0.9 | 1.92 | no change | no change | inactive
NEO1 | 1 | 0.29 | 1.39 | reduced viability | no change | active
NEO1 | 2 | 0.96 | 1.12 | no change | no change | inactive
NEO1 | 3 | 0.94 | 1.32 | no change | no change | inactive
NEO1 | 4 | 1.02 | 1.01 | no change | no change | inactive
NFYA | 1 | 0.55 | 2.24 | reduced viability | no change | active
NFYA | 2 | 0.92 | 0.84 | no change | no change | inactive
NFYA | 3 | 0.6 | 4.1 | no change | caspase activation | active
NFYA | 4 | 0.5 | 3.95 | reduced viability | caspase activation | active
TTC22 | 1 | 0.33 | 1.68 | no change | no change | inactive
TTC22 | 2 | 1.03 | 3.49 | no change | caspase activation | active
TTC22 | 3 | 0.86 | 1.73 | no change | no change | inactive
TTC22 | 4 | 0.92 | 1.77 | no change | no change | inactive
NAT8 | 1 | 0.44 | 4.65 | reduced viability | caspase activation | active
NAT8 | 2 | 1 | 1.98 | no change | no change | inactive
NAT8 | 3 | 0.84 | 1.69 | no change | no change | inactive
NAT8 | 4 | 0.8 | 1.29 | no change | no change | inactive
GALNT12 | 1 | 0.56 | 1.91 | reduced viability | no change | active
GALNT12 | 2 | 0.85 | 1.4 | no change | no change | inactive
GALNT12 | 3 | 1 | 1.45 | no change | no change | inactive
GALNT12 | 4 | 0.31 | 3.83 | reduced viability | caspase activation | active

10 entries from above, reformatted.
MICALL2 #1 → viability relative to mock: 0.6; caspase activity relative to mock: 2.56; viability hit class: no change; caspase hit class: no change; activity call: inactive
MICALL2 #2 → viability relative to mock: 0.94; caspase activity relative to mock: 2.66; viability hit class: no change; caspase hit class: caspase activation; activity call: active
MICALL2 #3 → viability relative to mock: 0.89; caspase activity relative to mock: 4.12; viability hit class: no change; caspase hit class: caspase activation; activity call: active
MICALL2 #4 → viability relative to mock: 1.02; caspase activity relative to mock: 1; viability hit class: no change; caspase hit class: no change; activity call: inactive
EIF2B2 #1 → viability relative to mock: 0.66; caspase activity relative to mock: 1.15; viability hit class: no change; caspase hit class: no change; activity call: inactive
EIF2B2 #2 → viability relative to mock: 0.58; caspase activity relative to mock: 1.61; viability hit class: no change; caspase hit class: no change; activity call: inactive
EIF2B2 #3 → viability relative to mock: 0.29; caspase activity relative to mock: 1.48; viability hit class: reduced viability; caspase hit class: no change; activity call: active
EIF2B2 #4 → viability relative to mock: 0.26; caspase activity relative to mock: 2.66; viability hit class: reduced viability; caspase hit class: caspase activation; activity call: active
AQR #1 → viability relative to mock: 0.36; caspase activity relative to mock: 3.69; viability hit class: reduced viability; caspase hit class: caspase activation; activity call: active
AQR #2 → viability relative to mock: 0.39; caspase activity relative to mock: 4.23; viability hit class: reduced viability; caspase hit class: caspase activation; activity call: active
